Reference: patent publication US7439264B2, “Therapeutic compounds” (President and Fellows of Harvard College, priority 2002, dated 2008)

System: dopamine transporter (DAT)
Experiment: Competition binding with [3H]WIN 35,428 at the dopamine transporter
Conditions: ratio of IC50 values
Method: The affinities (IC50) of the compounds for the dopamine and serotonin transporters were determined in competition studies using [3H]2β-carbomethoxy-3β-(4-fluorophenyl)-8-methyl-8-azabicyclo[3.2.1]octane ([^3H]WIN 35,428) to label the dopamine transporter and [^3H]citalopram to label the serotonin transporter. Competition studies were conducted with a fixed concentration of radioligand and a range of concentrations of the test compound. […] The cells were then exhaustively washed to remove non-covalently bound ligand and binding of cocaine (20 nM) and dopamine uptake (Vmax) were compared.

SMILES | Selectivity SERT/DAT
O=C(CCC1CO1)OCC1C2CCC(CC1c1ccc(Cl)c(Cl)c1)O2 (racemic) [Compound O-1834, 3-Oxiranyl-propionic acid [3α-(3,4-dichlorophenyl)-8-oxabicyclo[3.2.1]oct-3β-yl]methyl ester] | 17
CC(C)CC(=O)OCC1C2CCC(CC1c1ccc(Cl)c(Cl)c1)O2 (stereo not drawn) [Compound O-2059, 3-Methylbutanoic acid-[3α-(3,4-dichlorophenyl)-8-oxabicyclo[3.2.1]oct-2β-yl]methyl ester] | 7
C=CCCCOCC1C2CCC(CC1c1ccc(Cl)c(Cl)c1)O2 (stereo not drawn) [Compound O-2153, 3α-(3,4-dichlorophenyl)-2β-pent-4-enyloxymethyl-8-oxabicyclo[3.2.1]octane] | 13
COC(=O)C1C(c2ccc(F)cc2)CC2CCC1N2C (stereo not drawn) [WIN 35,428, 2β-carbomethoxy-3β-(4-fluorophenyl)-8-methyl-8-azabicyclo[3.2.1]octane, reference compound] | 15
C=CCCC(=O)OCC1C2CCC(CC1c1ccc(Cl)c(Cl)c1)O2 (stereo not drawn) [Compound O-1893, pent-4-enoic acid-(3α-(3,4-dichlorophenyl)-8-oxabicyclo[3.2.1]oct-2β-yl)methyl ester] | 30
CCCCC(=O)OCC1C2CCC(CC1c1ccc(Cl)c(Cl)c1)O2 (stereo not drawn) [Compound O-2102, Pentanoic acid-[3α-(3,4-dichlorophenyl)-8-oxabicyclo[3.2.1]oct-2β-yl]methyl ester] | 13
